Laboratory results reported in the supplement of paper PMC10849652.
Some of the results follow.

Sequences of proteins named here, by UniProt entry; tags and fusion partners are left off. A change or cut given only in a name is not applied to a line headed by its entry.
UniProt Q9BRY0: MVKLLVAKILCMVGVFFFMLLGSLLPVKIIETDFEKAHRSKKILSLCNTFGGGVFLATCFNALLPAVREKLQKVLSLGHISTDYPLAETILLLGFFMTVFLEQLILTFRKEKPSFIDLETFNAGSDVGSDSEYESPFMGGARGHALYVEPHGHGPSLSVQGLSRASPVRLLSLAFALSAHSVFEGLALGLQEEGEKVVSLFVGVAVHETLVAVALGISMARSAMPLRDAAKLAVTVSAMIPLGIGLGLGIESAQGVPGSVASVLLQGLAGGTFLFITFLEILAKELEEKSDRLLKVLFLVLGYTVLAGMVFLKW
UniProt P0CK96: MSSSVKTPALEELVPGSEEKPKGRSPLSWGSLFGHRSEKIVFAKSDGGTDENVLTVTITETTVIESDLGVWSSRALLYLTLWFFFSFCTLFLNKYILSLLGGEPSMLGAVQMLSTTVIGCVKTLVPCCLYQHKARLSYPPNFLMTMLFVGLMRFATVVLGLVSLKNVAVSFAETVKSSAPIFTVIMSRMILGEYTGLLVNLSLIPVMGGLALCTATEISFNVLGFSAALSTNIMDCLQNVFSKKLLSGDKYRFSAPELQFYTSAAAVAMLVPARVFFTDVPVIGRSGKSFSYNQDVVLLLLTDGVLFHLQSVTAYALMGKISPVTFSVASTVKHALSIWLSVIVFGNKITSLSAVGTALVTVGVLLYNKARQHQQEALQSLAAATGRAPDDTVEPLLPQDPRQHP
UniProt P78383: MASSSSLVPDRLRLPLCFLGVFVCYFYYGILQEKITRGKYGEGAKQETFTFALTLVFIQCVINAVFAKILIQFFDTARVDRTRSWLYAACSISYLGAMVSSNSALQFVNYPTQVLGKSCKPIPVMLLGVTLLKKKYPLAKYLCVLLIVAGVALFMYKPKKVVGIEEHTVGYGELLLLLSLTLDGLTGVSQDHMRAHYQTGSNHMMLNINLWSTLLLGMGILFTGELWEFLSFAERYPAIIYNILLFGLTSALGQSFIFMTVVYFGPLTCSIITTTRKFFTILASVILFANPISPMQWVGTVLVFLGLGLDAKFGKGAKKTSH
UniProt P41440: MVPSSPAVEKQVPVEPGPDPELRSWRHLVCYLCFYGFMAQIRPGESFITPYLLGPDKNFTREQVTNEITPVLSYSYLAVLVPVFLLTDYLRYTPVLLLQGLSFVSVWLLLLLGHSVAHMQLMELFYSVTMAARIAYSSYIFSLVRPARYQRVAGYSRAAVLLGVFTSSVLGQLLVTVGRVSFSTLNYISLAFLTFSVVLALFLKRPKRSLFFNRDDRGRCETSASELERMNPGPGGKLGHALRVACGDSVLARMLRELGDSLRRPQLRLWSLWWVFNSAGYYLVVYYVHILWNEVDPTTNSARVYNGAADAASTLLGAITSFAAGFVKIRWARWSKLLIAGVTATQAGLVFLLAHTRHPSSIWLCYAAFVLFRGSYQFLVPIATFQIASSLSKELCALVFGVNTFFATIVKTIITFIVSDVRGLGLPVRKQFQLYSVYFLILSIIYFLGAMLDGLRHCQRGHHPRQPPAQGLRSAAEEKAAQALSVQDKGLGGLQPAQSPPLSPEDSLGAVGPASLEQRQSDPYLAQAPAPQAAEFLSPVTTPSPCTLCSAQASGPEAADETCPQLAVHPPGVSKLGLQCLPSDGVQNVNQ
UniProt Q6P1K1: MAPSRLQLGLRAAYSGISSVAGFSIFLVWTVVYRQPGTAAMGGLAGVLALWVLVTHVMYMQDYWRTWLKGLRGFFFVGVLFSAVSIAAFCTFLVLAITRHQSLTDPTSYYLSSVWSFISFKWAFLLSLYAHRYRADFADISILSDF
UniProt Q8IVJ1: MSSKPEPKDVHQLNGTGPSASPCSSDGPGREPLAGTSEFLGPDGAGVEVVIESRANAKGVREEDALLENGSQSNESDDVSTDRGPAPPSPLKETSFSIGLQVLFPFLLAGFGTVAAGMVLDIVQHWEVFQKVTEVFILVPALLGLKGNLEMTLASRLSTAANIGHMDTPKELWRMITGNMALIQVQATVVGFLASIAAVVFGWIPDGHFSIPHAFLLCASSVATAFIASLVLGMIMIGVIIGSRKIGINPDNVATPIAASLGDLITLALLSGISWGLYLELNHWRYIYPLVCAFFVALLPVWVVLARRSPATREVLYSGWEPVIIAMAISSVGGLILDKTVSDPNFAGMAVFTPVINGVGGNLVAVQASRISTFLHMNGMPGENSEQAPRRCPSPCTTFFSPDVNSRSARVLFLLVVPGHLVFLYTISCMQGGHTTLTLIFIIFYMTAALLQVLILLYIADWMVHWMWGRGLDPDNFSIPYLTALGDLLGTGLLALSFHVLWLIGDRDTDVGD
UniProt Q15758: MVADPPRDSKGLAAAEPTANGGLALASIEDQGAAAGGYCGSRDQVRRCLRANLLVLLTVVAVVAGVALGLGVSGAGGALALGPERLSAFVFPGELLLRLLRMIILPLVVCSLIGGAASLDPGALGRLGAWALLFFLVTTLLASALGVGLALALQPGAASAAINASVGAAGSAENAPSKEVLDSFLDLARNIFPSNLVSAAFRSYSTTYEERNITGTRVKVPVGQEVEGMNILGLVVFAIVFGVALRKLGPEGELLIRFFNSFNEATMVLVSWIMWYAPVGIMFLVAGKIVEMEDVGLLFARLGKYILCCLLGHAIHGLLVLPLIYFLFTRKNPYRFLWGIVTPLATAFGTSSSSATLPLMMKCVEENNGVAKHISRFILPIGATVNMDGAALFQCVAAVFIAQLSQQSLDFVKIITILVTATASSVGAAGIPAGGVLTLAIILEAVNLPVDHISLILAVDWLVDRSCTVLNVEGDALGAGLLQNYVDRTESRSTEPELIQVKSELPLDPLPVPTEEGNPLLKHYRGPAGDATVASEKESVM
UniProt Q8WV83: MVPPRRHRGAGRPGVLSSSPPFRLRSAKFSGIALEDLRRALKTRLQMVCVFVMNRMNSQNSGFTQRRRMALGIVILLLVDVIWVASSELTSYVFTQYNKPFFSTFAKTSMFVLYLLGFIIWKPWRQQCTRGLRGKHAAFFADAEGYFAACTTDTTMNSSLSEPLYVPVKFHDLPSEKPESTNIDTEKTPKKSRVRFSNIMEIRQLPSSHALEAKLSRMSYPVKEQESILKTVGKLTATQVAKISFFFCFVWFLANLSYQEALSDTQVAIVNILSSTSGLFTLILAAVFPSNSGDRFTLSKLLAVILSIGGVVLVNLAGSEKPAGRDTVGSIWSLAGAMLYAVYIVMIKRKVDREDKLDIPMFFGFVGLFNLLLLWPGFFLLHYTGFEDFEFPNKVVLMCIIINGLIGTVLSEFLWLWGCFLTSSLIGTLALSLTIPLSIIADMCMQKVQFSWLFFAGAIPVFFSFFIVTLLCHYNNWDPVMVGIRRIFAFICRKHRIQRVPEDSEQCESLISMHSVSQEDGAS
UniProt Q8TAD4: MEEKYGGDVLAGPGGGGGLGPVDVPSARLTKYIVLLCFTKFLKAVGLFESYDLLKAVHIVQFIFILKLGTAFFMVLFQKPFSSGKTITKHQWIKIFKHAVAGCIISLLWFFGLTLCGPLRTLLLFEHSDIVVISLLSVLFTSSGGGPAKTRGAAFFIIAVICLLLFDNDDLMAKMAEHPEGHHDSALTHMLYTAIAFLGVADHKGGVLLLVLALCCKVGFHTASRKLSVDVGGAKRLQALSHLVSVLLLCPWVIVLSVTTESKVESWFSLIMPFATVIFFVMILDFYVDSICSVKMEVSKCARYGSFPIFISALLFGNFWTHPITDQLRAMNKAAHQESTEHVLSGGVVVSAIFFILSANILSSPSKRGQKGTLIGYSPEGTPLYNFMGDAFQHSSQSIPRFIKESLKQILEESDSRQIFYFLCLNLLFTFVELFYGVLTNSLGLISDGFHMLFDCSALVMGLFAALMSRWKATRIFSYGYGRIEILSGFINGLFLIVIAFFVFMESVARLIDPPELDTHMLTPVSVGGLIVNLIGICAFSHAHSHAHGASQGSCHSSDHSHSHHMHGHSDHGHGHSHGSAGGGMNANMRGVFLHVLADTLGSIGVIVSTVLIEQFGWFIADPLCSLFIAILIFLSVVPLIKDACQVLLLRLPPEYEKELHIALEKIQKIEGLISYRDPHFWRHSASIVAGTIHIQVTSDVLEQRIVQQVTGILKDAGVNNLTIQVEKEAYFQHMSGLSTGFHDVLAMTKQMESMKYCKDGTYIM
UniProt Q9BV35: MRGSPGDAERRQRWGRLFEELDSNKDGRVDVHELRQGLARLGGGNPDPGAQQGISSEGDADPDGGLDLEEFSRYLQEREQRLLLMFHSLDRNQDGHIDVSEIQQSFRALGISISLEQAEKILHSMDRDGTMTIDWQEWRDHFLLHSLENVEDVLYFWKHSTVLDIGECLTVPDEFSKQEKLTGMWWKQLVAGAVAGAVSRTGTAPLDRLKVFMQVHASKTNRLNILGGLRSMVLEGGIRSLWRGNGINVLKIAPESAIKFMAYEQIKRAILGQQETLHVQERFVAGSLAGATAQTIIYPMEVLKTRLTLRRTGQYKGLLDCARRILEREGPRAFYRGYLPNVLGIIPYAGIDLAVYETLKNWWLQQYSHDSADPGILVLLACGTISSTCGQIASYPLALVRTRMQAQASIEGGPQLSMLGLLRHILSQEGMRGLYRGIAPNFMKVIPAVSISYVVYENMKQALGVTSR
UniProt P14672: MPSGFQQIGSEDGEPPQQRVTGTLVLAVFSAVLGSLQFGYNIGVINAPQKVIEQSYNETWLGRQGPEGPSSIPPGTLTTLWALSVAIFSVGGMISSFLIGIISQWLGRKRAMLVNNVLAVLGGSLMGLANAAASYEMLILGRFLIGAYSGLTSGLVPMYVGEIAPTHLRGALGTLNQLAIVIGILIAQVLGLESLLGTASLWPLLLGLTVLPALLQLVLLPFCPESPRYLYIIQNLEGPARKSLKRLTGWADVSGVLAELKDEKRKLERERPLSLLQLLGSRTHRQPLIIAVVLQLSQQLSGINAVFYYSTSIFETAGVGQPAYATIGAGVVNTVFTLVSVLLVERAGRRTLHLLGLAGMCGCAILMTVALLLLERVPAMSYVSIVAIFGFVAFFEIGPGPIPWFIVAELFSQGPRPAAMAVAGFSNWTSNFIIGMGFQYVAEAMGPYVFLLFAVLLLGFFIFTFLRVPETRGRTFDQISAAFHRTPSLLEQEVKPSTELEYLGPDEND
UniProt Q8WUX1, whole entry, looked up: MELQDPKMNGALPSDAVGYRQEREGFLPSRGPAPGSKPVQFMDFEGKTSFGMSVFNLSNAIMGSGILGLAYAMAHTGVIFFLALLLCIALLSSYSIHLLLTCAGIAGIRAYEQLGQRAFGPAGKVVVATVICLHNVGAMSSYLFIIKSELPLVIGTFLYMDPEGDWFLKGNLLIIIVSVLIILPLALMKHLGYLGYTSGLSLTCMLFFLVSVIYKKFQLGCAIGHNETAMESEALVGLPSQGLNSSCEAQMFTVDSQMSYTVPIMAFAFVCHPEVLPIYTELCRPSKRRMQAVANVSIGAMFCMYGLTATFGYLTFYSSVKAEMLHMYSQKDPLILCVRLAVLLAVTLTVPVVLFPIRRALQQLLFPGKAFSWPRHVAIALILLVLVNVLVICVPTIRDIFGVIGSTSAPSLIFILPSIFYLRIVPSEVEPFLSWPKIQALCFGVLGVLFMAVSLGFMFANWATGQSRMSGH
UniProt Q00325: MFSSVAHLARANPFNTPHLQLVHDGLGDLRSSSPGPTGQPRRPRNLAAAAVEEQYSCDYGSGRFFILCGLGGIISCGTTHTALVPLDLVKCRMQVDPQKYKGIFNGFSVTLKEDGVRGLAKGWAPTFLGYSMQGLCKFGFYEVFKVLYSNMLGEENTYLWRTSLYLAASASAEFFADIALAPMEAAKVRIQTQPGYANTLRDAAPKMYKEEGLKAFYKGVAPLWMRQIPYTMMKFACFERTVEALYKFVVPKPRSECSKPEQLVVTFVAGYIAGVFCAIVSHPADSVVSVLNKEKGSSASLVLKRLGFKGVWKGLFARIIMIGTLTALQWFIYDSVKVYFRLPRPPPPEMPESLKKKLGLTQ
UniProt Q8N1S5: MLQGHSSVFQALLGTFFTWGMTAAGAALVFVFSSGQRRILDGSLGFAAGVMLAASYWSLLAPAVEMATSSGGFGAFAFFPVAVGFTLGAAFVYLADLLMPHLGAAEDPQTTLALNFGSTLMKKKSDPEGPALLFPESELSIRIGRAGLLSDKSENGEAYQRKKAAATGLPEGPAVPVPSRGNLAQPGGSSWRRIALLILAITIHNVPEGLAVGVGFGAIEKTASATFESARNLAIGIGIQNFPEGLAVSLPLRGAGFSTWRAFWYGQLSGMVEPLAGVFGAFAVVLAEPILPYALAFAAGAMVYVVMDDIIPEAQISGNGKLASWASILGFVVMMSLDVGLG
UniProt Q6ZP29: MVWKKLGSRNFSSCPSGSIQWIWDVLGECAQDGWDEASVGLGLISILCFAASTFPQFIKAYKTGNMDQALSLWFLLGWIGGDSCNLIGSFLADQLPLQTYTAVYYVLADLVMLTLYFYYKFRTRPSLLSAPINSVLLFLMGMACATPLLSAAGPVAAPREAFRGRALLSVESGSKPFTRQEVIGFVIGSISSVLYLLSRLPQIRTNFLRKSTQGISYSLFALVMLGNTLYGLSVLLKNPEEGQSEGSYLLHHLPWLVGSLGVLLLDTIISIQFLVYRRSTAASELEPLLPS

What was measured:
Assay in all cases: log2 fold change, soluble protein after heating vs DMSO (PISA); higher = thermal stabilisation; K562 cells, 10 uM, 30 min; active = over 0.2 and 3.5 SD of the protein, either way, in both replicates (recomputed)
[1] = compound: CC1=C(C=C(C=C1)NC(=O)C2=CC(=CC=C2)C(C)(C)C#N)NC3=CC4=C(C=C3)N=CN(C4=O)C
How it was run: (§1)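 K562 cells at 2×10^6 cells/mL were treated with 10 μM compound for 30 min. Aliquots were heated for 3 min across 48°C-58°C, pooled, and extracted in PBS with 0.5% NP-40 at 4°C; soluble protein was the supernatant after 21,000xg for 90 min. Soluble protein was quantified by TMTpro 16plex LC-MS/MS with channel sums equalised, and reported as log2 fold change in thermal stability against DMSO controls, with values from duplicates.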

[2] = compound: CC1=C(C=C(C=C1)NC(=O)C2=CC(=CC=C2)N(C)C)NC(=O)C3=CC=C(C=C3)O
How it was run: as §1

[3] = compound: CC1=CC=C(C=C1)SC2=C3C=C(SC3=CN=C2)C(=O)N
How it was run: as §1

Nexturastat A = compound: CCCCN(Cc1ccc(C(=O)NO)cc1)C(=O)Nc1ccccc1 [Nexturastat A]
How it was run: as §1

vemurafenib = compound: CCCS(=O)(=O)Nc1ccc(F)c(C(=O)c2c[nH]c3ncc(-c4ccc(Cl)cc4)cc23)c1F [vemurafenib]
How it was run: as §1

[4] = compound: CCCS(=O)(=O)Nc1ccc(F)c(C(=O)c2c[nH]c3ncc(Cl)cc23)c1F
How it was run: as §1

[5] = compound: CCCc1cc(C)[nH]c(=O)c1CNC(=O)c1cc(-c2ccnc(N3CCN(C)CC3)c2)cc2c1cnn2C(C)C
How it was run: as §1

givinostat = compound: CCN(CC)Cc1ccc2cc(COC(=O)Nc3ccc(C(=O)NO)cc3)ccc2c1 [givinostat]
How it was run: as §1

barasertib = compound: CCN(CCCOc1ccc2c(Nc3cc(CC(=O)Nc4cccc(F)c4)[nH]n3)ncnc2c1)CCOP(=O)(O)O [barasertib]
How it was run: as §1

[6] = compound: CC1=NC(=CC=C1)C2=C(N=C(N2)C(C)(C)C)C3=CC4=NC=CN=C4C=C3
How it was run: as §1

Target | log2 fold change [1] | log2 fold change [2] | log2 fold change [3] | log2 fold change (Nexturastat A) | log2 fold change (vemurafenib) | log2 fold change [4] | log2 fold change [5] | log2 fold change (givinostat) | log2 fold change (barasertib) | log2 fold change [6]
SLC39A3 (UniProt Q9BRY0) | inactive: 0.038 | inactive: -0.048 | inactive: 0.059 | inactive: -0.151 | inactive: 0.017 | inactive: 0.055 | inactive: -0.122 | inactive: -0.023 | inactive: -0.029 | –
SLC35A3 isoform 2 (UniProt Q9Y2D2) | inactive: 0.016 | inactive: 0.075 | inactive: -0.039 | inactive: -0.056 | – | inactive: -0.003 | inactive: 0.216 | inactive: 0.015 | inactive: -0.052 | inactive: 0
SLC35E2B (UniProt P0CK96) | inactive: 0.021 | inactive: -0.018 | inactive: -0.251 | – | inactive: -0.01 | inactive: -0.007 | inactive: -0.072 | – | inactive: 0.047 | inactive: 0.006
SLC35B1 isoform 2 (UniProt P78383) | inactive: 0.165 | inactive: -0.109 | – | inactive: 0.072 | inactive: 0.267 | – | inactive: -0.221 | inactive: 0.069 | inactive: -0.055 | inactive: 0.054
SLC35A2 isoform 4 (UniProt P78381) | inactive: 0.031 | inactive: 0.062 | inactive: 0.108 | inactive: -0.095 | inactive: -0.105 | inactive: -0.001 | inactive: -0.173 | – | inactive: -0.014 | inactive: -0.028
SLC35F6 (UniProt Q8N357) | inactive: -0.041 | inactive: -0.166 | inactive: 0.001 | inactive: -0.065 | inactive: -0.168 | inactive: -0.055 | inactive: -0.066 | inactive: 0.129 | inactive: 0.045 | –
SLC44A2 isoform 2 (UniProt Q8IWA5) | inactive: 0.084 | inactive: -0.033 | – | inactive: 0.05 | inactive: 0.038 | – | inactive: -0.029 | inactive: -0.027 | inactive: -0.012 | inactive: -0.024
SLC19A1 (UniProt P41440) | inactive: 0.112 | inactive: -0.054 | inactive: -0.019 | inactive: -0.107 | inactive: 0.002 | inactive: -0.031 | inactive: -0.018 | inactive: 0.007 | inactive: -0.011 | inactive: -0.023
SLC25A30 (UniProt Q5SVS4) | inactive: -0.059 | inactive: -0.082 | inactive: -0.197 | – | inactive: -0.013 | inactive: -0.015 | – | inactive: -0.101 | – | inactive: -0.126
SLC39A8 (UniProt Q9C0K1) | inactive: 0.024 | inactive: 0.114 | inactive: 0.141 | inactive: -0.012 | inactive: 0.022 | inactive: -0.041 | inactive: -0.241 | inactive: -0.049 | inactive: 0.039 | –
SLC25A39 (UniProt Q9BZJ4) | inactive: -0.029 | inactive: 0.011 | inactive: 0.207 | inactive: -0.037 | inactive: -0.019 | inactive: -0.048 | inactive: -0.133 | inactive: -0.092 | inactive: 0.088 | inactive: 0.129
SLC25A4 (UniProt P12235) | inactive: 0.041 | inactive: 0.029 | inactive: 0.073 | active: -0.228 | inactive: -0.028 | inactive: -0.02 | inactive: -0.032 | inactive: -0.049 | inactive: -0.009 | inactive: 0.017
SLC48A1 (UniProt Q6P1K1) | inactive: -0.021 | inactive: 0.167 | – | – | – | – | – | inactive: 0.1 | inactive: 0.039 | inactive: -0.034
SLC41A1 (UniProt Q8IVJ1) | inactive: 0.123 | inactive: 0.016 | inactive: 0.491 | inactive: 0.098 | – | inactive: 0.294 | inactive: 0.004 | – | – | inactive: -0.086
SLC30A9 (UniProt Q6PML9) | inactive: -0.084 | inactive: 0.038 | inactive: 0.01 | inactive: -0.015 | inactive: 0.06 | inactive: -0.018 | inactive: -0.151 | inactive: 0.049 | inactive: -0.014 | inactive: 0.034
SLC19A2 (UniProt O60779) | inactive: 0.163 | inactive: -0.077 | inactive: 0.285 | inactive: 0.388 | inactive: 0.027 | inactive: -0.009 | – | inactive: 0.026 | – | inactive: -0.176
SLC1A5 (UniProt Q15758) | inactive: 0.007 | inactive: 0.002 | inactive: 0.019 | inactive: -0.053 | inactive: -0.006 | inactive: 0.012 | inactive: -0.01 | inactive: -0.022 | inactive: -0.04 | inactive: -0.01

In a second layout: results already given
Target	log2 fold change [1]	log2 fold change [2]	log2 fold change [3]	log2 fold change (Nexturastat A)	log2 fold change (vemurafenib)	log2 fold change [4]	log2 fold change [5]	log2 fold change (givinostat)	log2 fold change (barasertib)	log2 fold change [6]
SLC35A3 isoform 2 (UniProt Q9Y2D2)	inactive: 0.016	inactive: 0.075	inactive: -0.039	inactive: -0.056	–	inactive: -0.003	inactive: 0.216	inactive: 0.015	inactive: -0.052	inactive: 0
SLC35E2B (UniProt P0CK96)	inactive: 0.021	inactive: -0.018	inactive: -0.251	–	inactive: -0.01	inactive: -0.007	inactive: -0.072	–	inactive: 0.047	inactive: 0.006

Additional entries.

Target | log2 fold change [1] | log2 fold change [2] | log2 fold change [3] | log2 fold change (Nexturastat A) | log2 fold change (vemurafenib) | log2 fold change [4] | log2 fold change [5] | log2 fold change (givinostat) | log2 fold change (barasertib) | log2 fold change [6]
SLC39A10 (UniProt Q9ULF5) | inactive: -0.009 | inactive: 0.012 | inactive: -0.046 | inactive: -0.007 | inactive: 0.019 | inactive: -0.047 | inactive: 0.012 | inactive: -0.027 | inactive: 0.007 | inactive: -0.033
SLC39A6 (UniProt Q13433) | inactive: -0.09 | inactive: -0.076 | inactive: -0.028 | inactive: -0.05 | inactive: -0.068 | inactive: -0.039 | inactive: -0.149 | inactive: 0.029 | inactive: -0.095 | inactive: 0.037
SLC35F5 (UniProt Q8WV83) | inactive: -0.125 | – | inactive: 0.089 | inactive: 0.046 | – | inactive: -0.152 | – | – | inactive: 0.184 | inactive: -0.323
SLC30A5 (UniProt Q8TAD4) | inactive: 0.077 | inactive: 0.067 | inactive: 0.025 | inactive: -0.077 | inactive: 0.029 | inactive: 0.071 | inactive: -0.12 | inactive: -0.007 | inactive: 0.038 | inactive: 0.006
SLC25A23 isoform 3 (UniProt Q9BV35) | inactive: -0.04 | inactive: 0.12 | inactive: 0.022 | – | inactive: -0.025 | inactive: -0.005 | inactive: 0.129 | inactive: 0.071 | inactive: 0.084 | inactive: -0.002
SLC2A4 (UniProt P14672) | inactive: 0.033 | inactive: -0.006 | inactive: 0.083 | – | – | inactive: 0.122 | inactive: -0.04 | inactive: -0.018 | inactive: -0.032 | –
SLC25A51 (UniProt Q9H1U9) | inactive: -0.028 | inactive: 0.028 | inactive: 0 | inactive: -0.02 | inactive: 0.029 | inactive: -0.044 | inactive: -0.003 | inactive: -0.014 | inactive: -0.016 | inactive: 0.012
SLC38A5 (UniProt Q8WUX1) | inactive: 0.048 | inactive: -0.005 | inactive: -0.01 | inactive: -0.077 | inactive: 0 | inactive: 0.061 | inactive: -0.065 | inactive: 0.018 | inactive: -0.016 | inactive: -0.007
SLC25A3 isoform 2 (UniProt Q00325) | inactive: 0.016 | inactive: 0.004 | inactive: -0.007 | inactive: -0.041 | inactive: 0.019 | inactive: -0.033 | inactive: -0.027 | inactive: -0.012 | inactive: -0.029 | inactive: -0.015
SLC39A11 (UniProt Q8N1S5) | inactive: 0.046 | inactive: 0.372 | inactive: -0.057 | – | inactive: 0.055 | inactive: -0.026 | inactive: -0.009 | inactive: 0.074 | inactive: -0.002 | inactive: 0.045
SLC25A44 (UniProt Q96H78) | inactive: 0.016 | – | inactive: 0.001 | inactive: 0.004 | inactive: 0.027 | inactive: -0.041 | inactive: -0.031 | – | inactive: 0.035 | inactive: -0.013
SLC41A3 isoform 9 (UniProt Q96GZ6) | inactive: -0.026 | – | – | inactive: -0.176 | – | – | inactive: -0.254 | inactive: 0.007 | inactive: -0.088 | inactive: -0.036
SLC66A1 (UniProt Q6ZP29) | – | – | – | – | – | – | inactive: -0.506 | inactive: -0.018 | inactive: 0.005 | –
SLC22A5 isoform 3 (UniProt O76082) | – | – | inactive: -0.075 | inactive: 0.103 | inactive: -0.084 | inactive: -0.016 | – | – | inactive: -0.21 | inactive: -0.067
SLC3A2 (UniProt F5H867) | inactive: -0.127 | – | inactive: -0.158 | inactive: -0.021 | – | inactive: -0.241 | inactive: -0.077 | inactive: -0.025 | inactive: -0.019 | –
SLC10A3 (UniProt P09131) | – | – | – | inactive: -0.244 | – | – | inactive: -0.066 | inactive: 0.073 | inactive: 0 | –
